Test results taken from article PMC7790415, “Loss of endocytosis-associated RabGEF1 causes aberrant morphogenesis and altered autophagy in photoreceptors leading to retinal degeneration” (PLoS Genetics, 2020).
No constants are given. Whether binding was seen depends on the method and setting. Binding seen in cells or lysates may run through a third protein. Some entries that bind do so weakly or less than the wild type.

Protein sequences, listed by entry. Tags and fused reporters are not part of them.
UniProt Q9JM13: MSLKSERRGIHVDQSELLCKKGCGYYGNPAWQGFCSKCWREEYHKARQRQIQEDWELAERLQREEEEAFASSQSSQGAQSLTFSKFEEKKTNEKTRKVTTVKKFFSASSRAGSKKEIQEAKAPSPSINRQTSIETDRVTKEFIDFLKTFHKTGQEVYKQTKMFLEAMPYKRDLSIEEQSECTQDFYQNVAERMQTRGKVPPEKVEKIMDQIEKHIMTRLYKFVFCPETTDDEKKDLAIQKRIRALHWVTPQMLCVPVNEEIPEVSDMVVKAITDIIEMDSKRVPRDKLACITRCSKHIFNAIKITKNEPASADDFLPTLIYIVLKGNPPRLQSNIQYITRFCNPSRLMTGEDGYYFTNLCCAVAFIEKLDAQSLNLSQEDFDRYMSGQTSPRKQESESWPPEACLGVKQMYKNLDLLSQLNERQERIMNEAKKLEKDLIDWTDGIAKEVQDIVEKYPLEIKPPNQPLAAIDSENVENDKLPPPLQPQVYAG

Biological target: RabGEF1 (mouse (endogenous in retina)) (UniProt Q9JM13)
Experiment: co-IP; anti-RabGEF1 antibody covalently conjugated to Dynabeads, incubated overnight with mouse retina extracts at 4°C; washes in 150 mM NaCl, 2 mM EDTA, 40 mM Tris-HCl pH 7.4, 1% NP-40, 10% glycerol; immunoblot for RabGEF1 and Rabaptin-5; rabbit IgG as negative control

B1: Rabaptin-5 (natural protein, mouse (endogenous in retina), UniProt O35551 1-862, looked up)
chain: MAQPGPAPQPDVSLQQRVAELEKINAEFLRAQQQLEQEFNQKRAKFKELYLAKEEDLKRQNAVLQAAQDDLGHLRTQLWEAQAEMENIKAIATVSENTKQEAIDEVKRQWREEVASLQAIMKETVRDYEHQFHLRLEQERAQWAQYRESAEREIADLRRRLSEGQEEENLENEMKKAQEDAEKLRSVVMPMEKEIAALKDKLTEAEDKIKELEASKVKELNHYLEAEKSCRTDLEMYVAVLNTQKSVLQEDAEKLRKELHEVCHLLEQERQQHNQLKHTWQKANDQFLESQRLLMRDMQRMEIVLTSEQLRQVEELKKKDQEEDEQQRVNKRKDNKKTDTEEEVKIPVVCALTQEESSTPLSNEEEHLDSTHGSVHSLDADLMLPSGDPFSKSDNDMFKDGLRRAQSTDSLGTSSSLQSKALGYNYKAKSAGNLDESDFGPLVGADSVSENFDTVSLGSLQMPSGFMLTKDQERAIKAMTPEQEETASLLSSVTQGMESAYVSPSGYRLVSETEWNLLQKEVHNAGNKLGRRCDMCSNYEKQLQGIQIQEAETRDQVKKLQLMLRQANDQLEKTMKEKQELEDFLKQSAEDSSHQISALVLRAQASEVLLEELQQSFSQAKRDVQEQMAVLMQSREQVSEELVRLQKDNDSLQGKHSLHVSLQLAEDFILPDTVEVLRELVLKYRENIVHVRTAADHMEEKLKAEILFLKEQIQAEQCLKENLEETLQLEIENCKEEIASISSLKAELERIKVEKGQLESTLREKSQQLESLQEMKVNLEEQLKKETAAKATVEQLMFEEKNKAQRLQTELDVSEQVQRDFVKLSQTLQVQLERIRQADSLERIRAILNDTKLTDINQLPET
notes: Rabaptin-5 (also known as Rabep1), mouse, endogenous protein of retinal extracts; Endogenous protein; also called Rabep1; source: endogenous, mouse retina extract (control retina)
binding: binds
